These are yes or no findings as the source states them, for the method shown. Binding seen in cells or lysates may run through a third protein. These calls come from enrichment with a bait or labelling near it, and not all partners need be listed. Where a sequence is shown, tags or fusion partners need not be part of it.
Target: T1, Flag-tagged SPARC (secreted protein acidic and cysteine-rich), full length (1-303) (UniProt P09486)
T1 sequence: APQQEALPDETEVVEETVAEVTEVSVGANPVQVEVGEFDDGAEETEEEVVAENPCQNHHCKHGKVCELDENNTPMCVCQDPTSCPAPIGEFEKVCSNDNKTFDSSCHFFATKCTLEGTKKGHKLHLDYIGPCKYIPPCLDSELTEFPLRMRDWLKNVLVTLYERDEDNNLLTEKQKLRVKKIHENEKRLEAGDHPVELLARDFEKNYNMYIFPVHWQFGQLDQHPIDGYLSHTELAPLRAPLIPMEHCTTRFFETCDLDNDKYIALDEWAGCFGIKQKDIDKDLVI
Assay: affinity purification with mass spectrometry; Caco-2 cells transfected with Flag-SPARC, IP lysis buffer, anti-FLAG magnetic beads, washed 4 times with IP lysis buffer, SDS-PAGE, bands cut out, trypsin, LC-MS/MS

Protein sequences, listed by entry. Tags and fused reporters are not part of them.
UniProt P19474: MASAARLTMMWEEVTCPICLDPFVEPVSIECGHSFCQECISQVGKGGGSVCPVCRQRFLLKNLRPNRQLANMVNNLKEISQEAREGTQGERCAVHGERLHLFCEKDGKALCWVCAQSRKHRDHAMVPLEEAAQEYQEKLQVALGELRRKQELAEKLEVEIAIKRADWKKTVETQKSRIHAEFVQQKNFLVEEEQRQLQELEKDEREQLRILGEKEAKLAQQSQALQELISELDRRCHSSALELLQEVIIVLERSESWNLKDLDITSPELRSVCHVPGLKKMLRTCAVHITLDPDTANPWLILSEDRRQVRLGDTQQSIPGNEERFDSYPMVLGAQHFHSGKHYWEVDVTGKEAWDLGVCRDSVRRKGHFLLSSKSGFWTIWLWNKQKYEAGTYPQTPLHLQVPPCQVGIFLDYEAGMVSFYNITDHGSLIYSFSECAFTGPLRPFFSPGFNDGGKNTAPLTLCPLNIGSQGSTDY

**Q.** How did the binding turn out when “TRIM21, endogenous in Caco-2 cells (from UniProt P19474 1-475) (enzyme)” was run?
**A.** binds

— article PMC11923920
